Laboratory results from PubChem BioAssay AID2685 (National Center for Advancing Translational Sciences (NCATS), 2010).
This is one part of the list. Further columns of the screen follow, without active or inactive calls. The list favours compounds with an active or inconclusive main result. The note in brackets gives the kind of curve behind each potency; many fits are weak.

Experiment: qHTS Assay for Lipid Storage Modulators in Drosophila S3 Cells;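 as to cell number change: cells counted by Cell Tracker Red CMTPX staining in the red channel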
Details: BODIPY lipid droplet fluorescence, 18-24 h; for cell number change: measured here: cell count max response, cells fed with added oleic acid
How it was run: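 Drosophila S3 cells got compounds at several concentrations plus oleic acid (400 uM solution). Laser-scanning cytometry with 488 nm excitation read lipid droplets at 500-530 nm and cells at 575-640 nm. Percent activity was relative to 20 uM Triacsin C.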

[1] = measured here: cell number channel AC50, cells fed with added oleic acid
[2] = measured here: lipid fluorescence (Fed channel) AC50, cells fed with added oleic acid

| SMILES | cell number change | AC50 [1] | AC50 [2] |
| --- | --- | --- | --- |
| O=[N+]([O-])c1cc(-n2cnnn2)ccc1N1CCC(Cc2ccccc2)CC1 | -52.3% | 18.4 µM [falling, single point] | 18.4 µM [falling, single point] |
| O=C(O)CNC(=O)CC1S/C(=N/N=C2/NC(=O)CS2)NC1=O (stereo not drawn) | -66% | 5.17 µM [falling, full curve, poor fit] | 4.61 µM [falling, partial curve] |
| O=S(=O)(NCc1csc(-c2cccnc2)n1)c1ccc(Cl)s1 | 58.7% | 29.1 µM [rising, single point] | 10.3 µM [rising, partial curve] |
| Cc1nc2ccc(S(=O)(=O)NCC(=O)Nc3ccc(F)cc3)cc2s1 |  |  | 6.51 µM [rising, single point] |
| Oc1cc(NCCc2cccnc2)cc2cccnc12 | 23.5% |  | 11.6 µM [rising, partial curve, poor fit] |
| CCCN(CCC)CCCNc1ccc2nnc(-c3ccc(F)cc3)n2n1 | 45.2% | 23.1 µM [rising, single point] |  |
| O=C(Cc1n[nH]c(=O)[nH]c1=O)N/N=C/c1c(O)ccc2ccccc12 | -37.9% | 0.231 µM [falling, full curve, poor fit] | 0.206 µM [falling, full curve, poor fit] |
| CCOC(=O)N1CCN(CC(=O)N2c3ccccc3CCc3ccccc32)CC1 | 16.9% |  |  |
| CC1(C)CC(=O)C2=C(C1)NCN(Cc1ccc3c(c1)OCO3)C2 | 38.1% | 16.4 µM [rising, single point] | 20.6 µM [rising, partial curve] |
| Oc1ccccc1/C=N/[n+]1ccccc1 | -17.3% |  | 0.517 µM [falling, full curve] |
| COc1cccc(-n2nnc3c(=O)n(Cc4cccc(F)c4)cnc32)c1 | -35.2% | 20.6 µM [falling, partial curve] | 20.6 µM [falling, single point] |
| CCOc1ccccc1C(=O)Nc1ccsc1C(=O)OC | 27.9% |  | 1.64 µM [rising, full curve] |
| O=C(COC(=O)CNS(=O)(=O)c1ccc(F)c(F)c1F)Nc1ccc(OC(F)F)cc1 | 3.23% |  |  |
| Cc1ccc(OCCn2cnc3ccccc3c2=O)c([N+](=O)[O-])c1 | -56.1% | 29.1 µM [falling, partial curve, poor fit] |  |
| COC(=O)CCC(=O)c1ccn(S(=O)(=O)c2ccccc2)c1 | 14.3% |  | 13 µM [rising, partial curve, poor fit] |
| C/C(CC(=O)Nc1cccc(C(F)(F)F)c1)=N\NC(=O)c1ccncc1 |  |  | 2.82 µM [falling, partial curve] |
| COc1cc(-n2c(C)nc3cc(C(=O)NCC4CCCO4)ccc32)cc(OC)c1OC (stereo not drawn) | 11.6% |  |  |
| Cc1ccccc1NC(=O)c1c(C)nn(-c2ccccc2)c1Cl | 41% | 16.4 µM [rising, single point] |  |
| Cc1cc(C)cc(OCC(=O)OCC(=O)N2CCc3ccccc32)c1 | -28.5% | 3.66 µM [falling, full curve, poor fit] |  |
| CCCCCCCC(=O)N/N=C(/C)c1c(O)cc(C)oc1=O | 9.96% |  | 6.51 µM [rising, single point] |

3 entries from above, tab-delimited:
SMILES	cell number change	AC50 [1]	AC50 [2]
O=C(Cc1n[nH]c(=O)[nH]c1=O)N/N=C/c1c(O)ccc2ccccc12	-37.9%	0.231 µM [falling, full curve, poor fit]	0.206 µM [falling, full curve, poor fit]
Oc1ccccc1/C=N/[n+]1ccccc1	-17.3%		0.517 µM [falling, full curve]
C/C(CC(=O)Nc1cccc(C(F)(F)F)c1)=N\NC(=O)c1ccncc1			2.82 µM [falling, partial curve]

(list continues)

| SMILES | cell number change | AC50 [1] | AC50 [2] |
| --- | --- | --- | --- |
| CCCc1ccc(C(=O)NNc2cc(Cl)ccc2Cl)cc1 | -24.7% |  | 1.03 µM [falling, full curve, poor fit] |
| CCCc1cc(=O)oc2cc(OCC(=O)N(C)C)c(Cl)cc12 | -15.3% |  | 6.51 µM [rising, partial curve, poor fit] |
| O=S1(=O)N[C@@H](CC2=CCCCC2)C2CCCCC2O1 (stereo partly drawn) | 16.5% |  |  |
| COc1ccccc1CNC(=O)COC(=O)CCN=C1NS(=O)(=O)c2ccccc21 |  | 4.61 µM [falling, single point] | 13 µM [falling, partial curve] |
| CCOP(=O)(c1ccc(N(C)C)cc1)C(O)c1ccccc1OC (stereo not drawn) | -11% |  |  |
| C=CCn1c(COc2ccc(F)cc2)nnc1SCC(=O)NC1CCCC1 | -46.8% | 46.1 µM [falling, single point] | 5.8 µM [falling, partial curve] |
| Cc1cc(OCC(=O)Nc2ccc3c(c2)OCCO3)cc(C)c1Cl | 19.9% |  |  |
| O=C(NCc1ccccn1)c1ccc(COc2ccc(Cl)cc2)o1 | -5.7% |  | 0.103 µM [rising, full curve, poor fit] |
| Cc1ccc2[nH]cc(CCNC(=O)C3CCCO3)c2c1 (stereo not drawn) | -9.19% |  | 18.4 µM [rising, partial curve] |
| CCCC(C(=O)NC(C)(C)C)N(Cc1ccc(F)cc1)C(=O)c1snc(C(N)=O)c1N (stereo not drawn) | 5.47% |  |  |
| COc1cc(/C=C/C(=O)N2CCN(c3ccccn3)CC2)cc(OC)c1OC |  |  | 18.4 µM [falling, partial curve] |
| COc1ccc(/C=C/C(=O)c2cccc(-n3cnnn3)c2)cc1O | 11.2% | 0.651 µM [rising, partial curve, poor fit] |  |
| CC1CCCCC1NC(=O)C1Cc2ccccc2CN1S(C)(=O)=O (stereo not drawn) | -4.05% |  | 2.06 µM [falling, full curve, poor fit] |
| CN(C)CCCNC(=O)Cc1ccc(Br)cc1 | -22.9% |  | 2.06 µM [falling, full curve, poor fit] |
| COc1ccc(OC)c(C2=NOC(C(=O)NCCN3CCOCC3)C2)c1 (stereo not drawn) |  |  | 6.51 µM [falling, partial curve, poor fit] |
| OC(c1nc2ccccc2[nH]1)C(O)C(O)C(O)c1nc2ccccc2[nH]1 (stereo not drawn) | -16% |  | 4.11 µM [falling, full curve, poor fit] |
| COc1ccc(-n2nc3cc(C)c(NC(=O)C(C)C)cc3n2)cc1 | 1.91% |  | 0.58 µM [rising, single point] |
| CNS(=O)(=O)c1cccc(C(=O)OCc2cc(Cl)cc3c2OCOC3)c1 | -9.85% |  |  |
| O=C(CN1C(=O)/C(=C\c2cccc(Br)c2)Oc2ccccc21)NCCCN1CCOCC1 | 16.3% |  | 6.51 µM [rising, single point] |
